We go through 70 molecules from the supplement of paper PMC7830784.

Values joined by “and” are separate entries in the source; they are usually repeats but may differ in a detail not shown here. Equal entries are not always repeated. Structures can show the parent of a compound that is named as a salt. Some of the results follow. Single values are uncertain here, since repeats match poorly.

The assay concerns Brugia pahangi adult female. The experiment in a line: motility inhibition on day 3 relative to DMSO vehicle; higher = more active. The settings on record: 10 µM; 3 days.
As to `O=C(O)c1cc(O)c2c(c1)[C@H]([C@H]1c3cc(C(=O)O)cc(O)c3C(=O)c3c(O[C@@H]4O[C@H](CO)[C@@H](O)[C@H](O)[C@H]4O)cccc31)c1cccc(O[C@@H]3O[C@H](CO)[C@@H](O)[C@H](O)[C@H]3O)c1C2=O` [sennoside a], the “motility inhibition on day 3” value worked out at 39.9%.
For `CC(=O)Oc1cc(C(C)C)c(OCCN(C)C)cc1C` [moxisylyte hydrochoride] the value was 24%.
For the molecule `Nc1ccc(S(=O)(=O)c2ccc(N)cc2)cc1` [dapsone], the “motility inhibition on day 3” value is < 0%.
To `OCCN1CCN(CCCN2c3ccccc3Sc3ccc(Cl)cc32)CC1` [perphenazine] belongs < 0%.
As for `CN(C)CCc1c[nH]c2ccc(Cn3cncn3)cc12` [rizatriptan benzoate], the “motility inhibition on day 3” value was 0.34%.
Consider `Cn1nnnc1SCC1=C(C(=O)O)N2C(=O)[C@@H](NC(=O)[C@H](O)c3ccccc3)[C@H]2SC1` [cefamandole sodium], for which the “motility inhibition on day 3” value is < 0%.
To `CCC[C@H](N[C@@H](C)C(=O)N1[C@H](C(=O)O)C[C@@H]2CCCC[C@@H]21)C(=O)OCC` [perindopril erbumine] belongs 11.5%; to `COc1ccc(NS(=O)(=O)c2ccc(N)cc2)nn1` [sulfamethoxypyridazine], 14.1%; to `Nc1ccc(C(=O)NCC(=O)O)cc1` [aminohippuric acid], 5.15%.
For `CC1(C)OC(=O)NC1=O` [dimethadione] the value was < 0%; for `N=C(N)NCC1COC2(CCCCC2)O1` (stereo not given) [guanadrel sulfate], 0.882%; for `CC(=O)Oc1cccc2c1C(=O)c1c(OC(C)=O)cc(C(=O)O)cc1C2=O` [diacerin], 13%.
For `Cc1ncc(CSSCc2cnc(C)c(O)c2CO)c(CO)c1O` [pyritinol] the value was 14.7%; for `O=C(Nc1ncc([N+](=O)[O-])s1)c1ccccc1O` [Tizoxanide], 99%; for `N=C(N)NC(=N)N1CCOCC1` [moroxydine hydrochloride], 17.4%.
For the molecule `N[C@H]1C(O)O[C@H](CO)[C@@H](O)[C@@H]1O` (stereo not given in full) [glucosamine hydrochloride], the “motility inhibition on day 3” value was 16.3%.
For `C=C1C[C@H]2[C@@H]3C=C(C)C4=CC(=O)CC[C@]4(C)[C@H]3CC[C@]2(C)[C@@]1(OC(C)=O)C(C)=O` [melengestrol acetate] the value was 46.7%; for `CN1CCCC(n2nc(Cc3ccc(Cl)cc3)c3ccccc3c2=O)CC1` (stereo not given) [azelastine hydrochloride], 3.8%; for `O=C(CNC(=O)c1ccc(Cl)cc1)NO` [benurestat], 7.12%.
In the case of `CC1=CC(=O)NS(=O)(=O)O1` [acesulfame potassium], the “motility inhibition on day 3” value turned out to be 0.709%.
To `CN(C)CCC[C@@]1(c2ccc(F)cc2)OCc2cc(C#N)ccc21` [escitalopram oxalate] belongs < 0%; to `CCCC(=O)Nc1ncnc2c1ncn2[C@@H]1O[C@@H]2COP(=O)(O)O[C@H]2[C@H]1OC(=O)CCC` [bucladesine], 4.28%; to `NC(=O)N/N=C/c1ccc([N+](=O)[O-])o1` [nitrofurazone], 40.6%.
Turning to `O=C(O[C@H]1CN2CCC1CC2)N1CCc2ccccc2[C@@H]1c1ccccc1` [solifenacin succinate], the “motility inhibition on day 3” value is 22.3%.
In the case of `CN1CCCCC1CCN1c2ccccc2Sc2ccc([S+](C)[O-])cc21` (stereo not given) [mesoridazine besylate], the “motility inhibition on day 3” value was 12.4%.
For `CO[C@@H]1[C@@H](OC(N)=O)[C@@H](O)[C@H](Oc2ccc3c(O)c(NC(=O)c4ccc(O)c(CC=C(C)C)c4)c(=O)oc3c2C)OC1(C)C` [novobiocin sodium] the value was 8.71%.
For the molecule `CCN1CCN(C(=O)N[C@@H](C(=O)N[C@@H]2C(=O)N3[C@@H]2SC(C)(C)[C@@H]3C(=O)O)c2ccccc2)C(=O)C1=O` [piperacillin sodium], the “motility inhibition on day 3” value turned out to be 24.9%.
To `CC(=O)Oc1cccc(O)c1` [resorcinol monoacetate] belongs 33.7%; to `Cc1ncc([N+](=O)[O-])n1CCO` [metronidazole], 30.9%.
For the molecule `CCN(CC)CC#CCOC(=O)C(O)(c1ccccc1)C1CCCCC1` (stereo not given) [oxybutynin chloride], the “motility inhibition on day 3” value is 4.89%.
To `OC(CCN1CCCCC1)(c1ccccc1)C1CC2C=CC1C2` (stereo not given) [biperiden] belongs 13.3%; to `CCN(Cc1ccncc1)C(=O)C(CO)c1ccccc1` (stereo not given) [Tropicamide], 12.6%.
For the molecule `CC(C)N1CCN(c2ccc(OCC3COC(Cn4cncn4)(c4ccc(Cl)cc4Cl)O3)cc2)CC1` (stereo not given) [terconazole], the “motility inhibition on day 3” value is 0.568%.
To `CN1C2CCCC1CC(NC(=O)c1nn(C)c3ccccc13)C2` (stereo not given) [granisetron hydrochloride] belongs 2.97%; to `NC[C@H]1O[C@H](O[C@H]2[C@H](O[C@@H]3O[C@H](CO)[C@@H](O)[C@H]3O)[C@@H](O)[C@H](N)C[C@@H]2N)[C@H](N)[C@@H](O)[C@@H]1O` [ribostamycin sulfate], 4.88%; to `Cc1ccc(C(=O)c2cc(O)c(O)c([N+](=O)[O-])c2)cc1` [Tolcapone], < 0%.
To `COc1ccc2[nH]cc(CCNC(C)=O)c2c1` [Melatonin] belongs < 0%.
Take `O=C([O-])c1ccccc1O.[Na+]` [sodium salicylate]: the “motility inhibition on day 3” value amounted to 15.4%.
On to `C=CC[C@@H]1/C=C(\C)C[C@H](C)C[C@H](OC)[C@H]2O[C@@](O)(C(=O)C(=O)N3CCCC[C@H]3C(=O)O[C@H](/C(C)=C/[C@@H]3CC[C@@H](O)[C@H](OC)C3)[C@H](C)[C@@H](O)CC1=O)[C@H](C)C[C@@H]2OC` [tacrolimus], for which the “motility inhibition on day 3” value turned out to be 18.5%.
As for `COCc1c(C(C)C)nc(C(C)C)c(/C=C/[C@@H](O)C[C@@H](O)CC(=O)O)c1-c1ccc(F)cc1`, the “motility inhibition on day 3” value was < 0%.
To `Cc1ccc(S(=O)(=O)NC(=O)NN2CC3CCCC3C2)cc1` (stereo not given) [gliclazide] belongs 2.13%; to `CC(=O)N[C@@H](CC(=O)N[C@@H](CCC(=O)O)C(=O)O)C(=O)O` [spaglumic acid], 16.2%.
For `NCCS(=O)(=O)O` [taurine] the value was 3.39%.
Take `COc1cc2nc(N3CCN(C(=O)c4ccco4)CC3)nc(N)c2cc1OC` [prazosin hydrochloride]: the “motility inhibition on day 3” value was found to be 13.9%.
To `CCn1cc(C(=O)O)c(=O)c2cnc(N3CCNCC3)nc21` [pipemidic acid] belongs 19.4%; to `Oc1c(I)cc(I)c2cccnc12` [iodoquinol], 87.6%.
To `CCN(CC)CCNC(=O)c1cc(S(C)(=O)=O)ccc1OC` [tiapride hydrochloride] belongs 4.78%; to `O=C(CCCN1CC=C(n2c(=O)[nH]c3ccccc32)CC1)c1ccc(F)cc1` [droperidol], 6.36%; to `COc1ccc2cc(CCC(C)=O)ccc2c1` [nabumetone], < 0%.
To `O=C(O)CCC(=O)OC[C@@H](NC(=O)C(Cl)Cl)[C@H](O)c1ccc([N+](=O)[O-])cc1` [chloramphenicol hemisuccinate] belongs 10.9%; to `CCCCCC(C)N` (stereo not given) [tuaminoheptane sulfate], 59.1%.
Take `C[C@H]1[C@@H](O)O[C@@H]2O[C@@]3(C)CC[C@H]4[C@H](C)CC[C@@H]1[C@@]24OO3` [artenimol]: the “motility inhibition on day 3” value was 14.8%.
Regarding `CCn1cc(C(=O)O)c(=O)c2ccc(C)nc21` [nalidixic acid], the “motility inhibition on day 3” value is < 0%.
In the case of `C#CCN(C)Cc1ccccc1` [Pargyline hydrochloride], the “motility inhibition on day 3” value is < 0%.
To `CC(=O)OCC(COC(C)=O)OC(C)=O` [triacetin] belongs 4.19%.
Turning to `c1cnc2cc3c(cc2n1)[C@@H]1CNC[C@H]3C1` [Varenicline Tartrate], the “motility inhibition on day 3” value amounted to 33.6%.
Turning to `CO[C@H]1/C=C/O[C@@]2(C)Oc3c(C)c(O)c4c(c3C2=O)C2=NC3(CCN(CC(C)C)CC3)NC2=C(NC(=O)/C(C)=C\C=C\[C@H](C)[C@H](O)[C@@H](C)[C@@H](O)[C@@H](C)[C@H](OC(C)=O)[C@@H]1C)C4=O`, the “motility inhibition on day 3” value is 10.3%.
For `NC(=O)N1c2ccccc2C=Cc2ccccc21` [Carbamazepine], the “motility inhibition on day 3” value was 9.67%.
To `CN(C)CCN(Cc1cccs1)c1ccccn1` [methapyrilene hydrochloride] belongs 11.2%; to `C=C1CC[C@H](O)C/C1=C/C=C1\CCC[C@]2(C)[C@@H]([C@H](C)CCCC(C)(C)O)CC[C@@H]12` [Calcifediol], 4.65%.
Regarding `O=C([O-])[C@H]1/C(=C/CO)O[C@@H]2CC(=O)N21.[Li+]` [clavulanate lithium], the “motility inhibition on day 3” value stood at 7.59%.
To `CC(C)C[C@H](NC(=O)[C@@H](Cc1c[nH]c2ccccc12)NC(=O)[C@H](Cc1ccc(O)cc1)NC(=O)[C@H](CO)NC(=O)[C@H](Cc1c[nH]c2ccccc12)NC(=O)[C@H](Cc1c[nH]cn1)NC(=O)[C@@H]1CCC(=O)N1)C(=O)N[C@@H](CCCNC(=N)N)C(=O)N1CCC[C@H]1C(=O)NCC(N)=O` [Triptorelin] belongs < 0%.
To `Nc1nc(=O)c2nc(CNc3ccc(C(=O)N[C@@H](CCC(=O)O)C(=O)O)cc3)cnc2[nH]1` [folic acid] belongs 4.31% and 16.7%; to `CC(=O)N[C@@H](CC(C)C)C(=O)O` [acetyl-l-leucine], 5.26%; to `CC[C@H]1OC(=O)[C@H](C)[C@@H](O[C@H]2C[C@@](C)(OC)[C@@H](O)[C@H](C)O2)[C@H](C)[C@@H](O[C@@H]2O[C@H](C)C[C@H](N(C)C)[C@H]2O)[C@](C)(O)C[C@@H](C)/C(=N\OCOCCOC)[C@H](C)[C@@H](O)[C@]1(C)O` [roxithromycin], 43.7%.
Turning to `CC(C)NCC(O)COc1ccc(COCCOC(C)C)cc1` (stereo not given) [bisoprolol fumarate], the “motility inhibition on day 3” value was found to be 5.06%.
With `O=C1CN2Cc3c(ccc(Cl)c3Cl)N=C2N1` [anagrelide hydrochloride], the “motility inhibition on day 3” value is 25.7%.
For `CC(C)C(=O)OCC(=O)[C@@]12O[C@H](C3CCCCC3)O[C@@H]1C[C@H]1[C@@H]3CCC4=CC(=O)C=C[C@]4(C)[C@H]3[C@@H](O)C[C@@]12C` [Ciclesonide] the value was 11.3%; for `Nc1nc(Cl)nc2c1ncn2[C@@H]1O[C@H](CO)[C@@H](O)[C@@H]1F` [Clofarabine], < 0%; for `Nc1nc(Cl)nc2c1ncn2[C@@H]1O[C@H](CO)[C@@H](O)[C@@H]1F` [clofarabine], 13.6%.
